No constants are given. Whether binding was seen depends on the method and setting. For some of these results: In cells and extracts the contact can be indirect. Some binding calls cover weakened binding; strength is not graded here. For some of these results: Where a sequence is shown, tags or fusion partners need not be part of it.

Chains of the proteins cited; added tags and fusions are not shown. Lines headed by an entry give the natural chain unless they say otherwise; changes in a name come on top.
UniProt P18852: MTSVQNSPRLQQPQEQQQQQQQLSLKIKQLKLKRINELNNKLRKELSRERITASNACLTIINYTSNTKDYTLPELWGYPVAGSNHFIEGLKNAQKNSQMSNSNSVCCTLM

Here are results for 5 molecules from patent publication US20030175712A1 (published 2003).

Assay [1] addresses T1, Ste4p, GAL4 two-hybrid fusion (S. cerevisiae) (UniProt P18851).
T1 sequence: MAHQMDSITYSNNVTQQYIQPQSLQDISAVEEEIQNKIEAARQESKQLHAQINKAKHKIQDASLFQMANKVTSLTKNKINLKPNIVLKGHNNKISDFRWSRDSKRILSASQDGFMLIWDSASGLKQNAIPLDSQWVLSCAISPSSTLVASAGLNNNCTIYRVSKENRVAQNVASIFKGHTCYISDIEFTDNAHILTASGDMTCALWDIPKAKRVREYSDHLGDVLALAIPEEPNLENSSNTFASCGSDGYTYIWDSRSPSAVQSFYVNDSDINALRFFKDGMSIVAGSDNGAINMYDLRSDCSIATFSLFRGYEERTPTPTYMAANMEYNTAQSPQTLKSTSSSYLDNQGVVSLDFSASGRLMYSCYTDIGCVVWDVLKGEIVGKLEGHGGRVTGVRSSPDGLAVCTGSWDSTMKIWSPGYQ
As to the kind of experiment: yeast two-hybrid.

Assay [2] has as its target T2, Cdc24p, two-hybrid construct (limits not stated) (S. cerevisiae) (UniProt P11433).
T2 sequence (looked up): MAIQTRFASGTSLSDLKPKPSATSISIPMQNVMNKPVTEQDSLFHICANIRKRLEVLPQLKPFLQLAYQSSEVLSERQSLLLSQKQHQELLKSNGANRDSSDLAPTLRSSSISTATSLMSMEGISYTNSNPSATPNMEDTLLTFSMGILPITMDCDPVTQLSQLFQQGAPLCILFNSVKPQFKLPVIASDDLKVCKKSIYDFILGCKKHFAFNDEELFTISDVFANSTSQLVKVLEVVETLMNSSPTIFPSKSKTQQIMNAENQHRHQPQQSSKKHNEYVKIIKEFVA
As to the kind of experiment: yeast two-hybrid.

Assay [3] has as its target T2, Cdc24p, two-hybrid construct (limits not stated) (S. cerevisiae). Nature of the assay: yeast two-hybrid in the absence of Gβ.
For assay [4], the target named is Gβγ purified from yeast (HA-tagged Gβ) (S. cerevisiae) (UniProt P18852). As to the kind of experiment: in vitro binding of MBP-Far1 to Gβ purified from yeast.
In assay [5] the target is T3, 3×myc tagged Cdc24 (S. cerevisiae) (UniProt P11433).
T3 sequence (looked up): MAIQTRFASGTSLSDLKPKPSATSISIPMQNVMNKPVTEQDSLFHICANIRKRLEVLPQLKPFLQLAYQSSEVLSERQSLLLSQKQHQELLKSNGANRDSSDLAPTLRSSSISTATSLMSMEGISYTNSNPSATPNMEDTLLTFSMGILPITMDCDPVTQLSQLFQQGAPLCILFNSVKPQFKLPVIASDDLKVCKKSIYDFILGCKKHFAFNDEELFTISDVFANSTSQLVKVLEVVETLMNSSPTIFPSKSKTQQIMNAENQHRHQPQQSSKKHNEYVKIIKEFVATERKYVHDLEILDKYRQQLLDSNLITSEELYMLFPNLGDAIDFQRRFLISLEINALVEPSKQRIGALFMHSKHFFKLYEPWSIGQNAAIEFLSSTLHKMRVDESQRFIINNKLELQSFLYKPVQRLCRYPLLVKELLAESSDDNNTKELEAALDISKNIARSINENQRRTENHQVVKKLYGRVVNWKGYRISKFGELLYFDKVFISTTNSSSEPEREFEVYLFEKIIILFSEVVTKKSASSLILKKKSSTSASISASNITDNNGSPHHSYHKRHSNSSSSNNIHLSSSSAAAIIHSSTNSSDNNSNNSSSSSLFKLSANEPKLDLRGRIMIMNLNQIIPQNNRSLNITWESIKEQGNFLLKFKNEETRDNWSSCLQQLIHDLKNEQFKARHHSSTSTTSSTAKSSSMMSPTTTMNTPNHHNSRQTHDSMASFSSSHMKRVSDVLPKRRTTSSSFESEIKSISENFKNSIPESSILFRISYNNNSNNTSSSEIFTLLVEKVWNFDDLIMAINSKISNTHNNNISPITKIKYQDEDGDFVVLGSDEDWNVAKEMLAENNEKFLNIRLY
As to the kind of experiment: co-precipitation on IgG-Sepharose from yeast extracts.

The target in assay [6] is T4, GSTCdc24p (1-472 aa) (S. cerevisiae) (UniProt P11433).
T4 sequence (looked up): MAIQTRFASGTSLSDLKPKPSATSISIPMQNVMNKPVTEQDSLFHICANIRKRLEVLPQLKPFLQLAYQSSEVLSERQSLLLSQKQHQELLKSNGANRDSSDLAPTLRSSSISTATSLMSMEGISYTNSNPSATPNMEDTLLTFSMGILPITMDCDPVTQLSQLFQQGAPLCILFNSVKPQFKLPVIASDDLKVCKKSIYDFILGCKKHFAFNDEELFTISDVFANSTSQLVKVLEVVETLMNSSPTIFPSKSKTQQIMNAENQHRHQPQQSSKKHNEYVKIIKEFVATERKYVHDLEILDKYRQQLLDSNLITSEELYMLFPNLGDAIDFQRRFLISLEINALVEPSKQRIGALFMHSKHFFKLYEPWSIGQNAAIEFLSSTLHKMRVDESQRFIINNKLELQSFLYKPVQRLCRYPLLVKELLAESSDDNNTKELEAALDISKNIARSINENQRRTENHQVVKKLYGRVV
As to the kind of experiment: GSH-agarose pull-down from mixed bacterial extracts, immunoblot.

B1: full length Cdc24p, GAL4 two-hybrid fusion (protein, not shown: small tags and cut ends)
chain: MAIQTRFASGTSLSDLKPKPSATSISIPMQNVMNKPVTEQDSLFHICANIRKRLEVLPQLKPFLQLAYQSSEVLSERQSLLLSQKQHQELLKSNGANRDSSDLAPTLRSSSISTATSLMSMEGISYTNSNPSATPNMEDTLLTFSMGILPITMDCDPVTQLSQLFQQGAPLCILFNSVKPQFKLPVIASDDLKVCKKSIYDFILGCKKHFAFNDEELFTISDVFANSTSQLVKVLEVVETLMNSSPTIFPSKSKTQQIMNAENQHRHQPQQSSKKHNEYVKIIKEFVATERKYVHDLEILDKYRQQLLDSNLITSEELYMLFPNLGDAIDFQRRFLISLEINALVEPSKQRIGALFMHSKHFFKLYEPWSIGQNAAIEFLSSTLHKMRVDESQRFIINNKLELQSFLYKPVQRLCRYPLLVKELLAESSDDNNTKELEAALDISKNIARSINENQRRTENHQVVKKLYGRVVNWKGYRISKFGELLYFDKVFISTTNSSSEPEREFEVYLFEKIIILFSEVVTKKSASSLILKKKSSTSASISASNITDNNGSPHHSYHKRHSNSSSSNNIHLSSSSAAAIIHSSTNSSDNNSNNSSSSSLFKLSANEPKLDLRGRIMIMNLNQIIPQNNRSLNITWESIKEQGNFLLKFKNEETRDNWSSCLQQLIHDLKNEQFKARHHSSTSTTSSTAKSSSMMSPTTTMNTPNHHNSRQTHDSMASFSSSHMKRVSDVLPKRRTTSSSFESEIKSISENFKNSIPESSILFRISYNNNSNNTSSSEIFTLLVEKVWNFDDLIMAINSKISNTHNNNISPITKIKYQDEDGDFVVLGSDEDWNVAKEMLAENNEKFLNIRLY
For B1, in assay [1], the binding entry was “binds”.

B2: Far1, two-hybrid construct (protein, S. cerevisiae, UniProt P21268 1-830, looked up, not shown: large carriers)
chain: MKTPTRVSFEKKIHTPPSGDRDAERSPPKKFLRGLSGKVFRKTPEFKKQQMPTFGYIEESQFTPNLGLMMSKRGNIPKPLNLSKPISPPPSLKKTAGSVASGFSKTGQLSALQSPVNITSSNKYNIKATNLTTSLLRESISDSTTMCDTLSDINLTVMDEDYRIDGDSYYEEDSPTFMISLERNIKKCNSQFSPKRYIGEKCLICEESISSTFTGEKVVESTCSHTSHYNCYLMLFETLYFQGKFPECKICGEVSKPKDKDIVPEMVSKLLTGAGAHDDGPSSNMQQQWIDLKTARSFTGEFPQFTPQEQLIRTADISCDGFRTPRLSNSNQFEAVSYLDSPFLNSPFVNKMATTDPFDLSDDEKLDCDDEIDESAAEVWFSKTGGEHVMVSVKFQEMRTSDDLGVLQDVNHVDHEELEEREKEWKKKIDQYIETNVDKDSEFGSLILFDKLMYSDDGEQWVDNNLVILFSKFLVLFDFEEMKILGKIPRDQFYQVIKFNEDVLLCSLKSTNIPEIYLRFNENCEKWLLPKWKYCLENSSLETLPLSEIVSTVKELSHVNIIGALGAPPDVISAQSHDSRLPWKRLHSDTPLKLIVCLNLSHADGELYRKRVLKSVHQILDGLNTDDLLGIVVVGRDGSGVVGPFGTFIGMINKNWDGWTTFLDNLEVVNPNVFRDEKQQYKVTLQTCERLASTSAYVDTDDHIATGYAKQILVLNGSDVVDIEHDQKLKKAFDQLSYHWRYEISQRRMTPLNASIKQFLEELHTKRYLDVTLRLPQATFEQVYLGDMAAGEQKTRLIMDEHPHSSLIEIEYFDLVKQQRIHQTLEVPNL
In the case of B2, the binding result in assay [2], in assay [1] and in assay [3] was “binds” in each case.

B3: MBP-Far1 (protein, S. cerevisiae, UniProt P21268 1-830, looked up, not shown: large carriers)
chain: MKTPTRVSFEKKIHTPPSGDRDAERSPPKKFLRGLSGKVFRKTPEFKKQQMPTFGYIEESQFTPNLGLMMSKRGNIPKPLNLSKPISPPPSLKKTAGSVASGFSKTGQLSALQSPVNITSSNKYNIKATNLTTSLLRESISDSTTMCDTLSDINLTVMDEDYRIDGDSYYEEDSPTFMISLERNIKKCNSQFSPKRYIGEKCLICEESISSTFTGEKVVESTCSHTSHYNCYLMLFETLYFQGKFPECKICGEVSKPKDKDIVPEMVSKLLTGAGAHDDGPSSNMQQQWIDLKTARSFTGEFPQFTPQEQLIRTADISCDGFRTPRLSNSNQFEAVSYLDSPFLNSPFVNKMATTDPFDLSDDEKLDCDDEIDESAAEVWFSKTGGEHVMVSVKFQEMRTSDDLGVLQDVNHVDHEELEEREKEWKKKIDQYIETNVDKDSEFGSLILFDKLMYSDDGEQWVDNNLVILFSKFLVLFDFEEMKILGKIPRDQFYQVIKFNEDVLLCSLKSTNIPEIYLRFNENCEKWLLPKWKYCLENSSLETLPLSEIVSTVKELSHVNIIGALGAPPDVISAQSHDSRLPWKRLHSDTPLKLIVCLNLSHADGELYRKRVLKSVHQILDGLNTDDLLGIVVVGRDGSGVVGPFGTFIGMINKNWDGWTTFLDNLEVVNPNVFRDEKQQYKVTLQTCERLASTSAYVDTDDHIATGYAKQILVLNGSDVVDIEHDQKLKKAFDQLSYHWRYEISQRRMTPLNASIKQFLEELHTKRYLDVTLRLPQATFEQVYLGDMAAGEQKTRLIMDEHPHSSLIEIEYFDLVKQQRIHQTLEVPNL
As to B3, the binding entry in assay [4] is reported as “binds”.

B4: Far1 protein A fusion (other, S. cerevisiae, UniProt P21268 1-830, looked up)
chain: MKTPTRVSFEKKIHTPPSGDRDAERSPPKKFLRGLSGKVFRKTPEFKKQQMPTFGYIEESQFTPNLGLMMSKRGNIPKPLNLSKPISPPPSLKKTAGSVASGFSKTGQLSALQSPVNITSSNKYNIKATNLTTSLLRESISDSTTMCDTLSDINLTVMDEDYRIDGDSYYEEDSPTFMISLERNIKKCNSQFSPKRYIGEKCLICEESISSTFTGEKVVESTCSHTSHYNCYLMLFETLYFQGKFPECKICGEVSKPKDKDIVPEMVSKLLTGAGAHDDGPSSNMQQQWIDLKTARSFTGEFPQFTPQEQLIRTADISCDGFRTPRLSNSNQFEAVSYLDSPFLNSPFVNKMATTDPFDLSDDEKLDCDDEIDESAAEVWFSKTGGEHVMVSVKFQEMRTSDDLGVLQDVNHVDHEELEEREKEWKKKIDQYIETNVDKDSEFGSLILFDKLMYSDDGEQWVDNNLVILFSKFLVLFDFEEMKILGKIPRDQFYQVIKFNEDVLLCSLKSTNIPEIYLRFNENCEKWLLPKWKYCLENSSLETLPLSEIVSTVKELSHVNIIGALGAPPDVISAQSHDSRLPWKRLHSDTPLKLIVCLNLSHADGELYRKRVLKSVHQILDGLNTDDLLGIVVVGRDGSGVVGPFGTFIGMINKNWDGWTTFLDNLEVVNPNVFRDEKQQYKVTLQTCERLASTSAYVDTDDHIATGYAKQILVLNGSDVVDIEHDQKLKKAFDQLSYHWRYEISQRRMTPLNASIKQFLEELHTKRYLDVTLRLPQATFEQVYLGDMAAGEQKTRLIMDEHPHSSLIEIEYFDLVKQQRIHQTLEVPNL
notes: Isolated from yeast extracts on IgG-Sepharose; not shown: protein A moiety
For the molecule B4, in assay [5], the binding entry is listed as “binds”.

B5: His6Ste4p (other)
chain: MAHQMDSITYSNNVTQQYIQPQSLQDISAVEEEIQNKIEAARQESKQLHAQINKAKHKIQDASLFQMANKVTSLTKNKINLKPNIVLKGHNNKISDFRWSRDSKRILSASQDGFMLIWDSASGLKQNAIPLDSQWVLSCAISPSSTLVASAGLNNNCTIYRVSKENRVAQNVASIFKGHTCYISDIEFTDNAHILTASGDMTCALWDIPKAKRVREYSDHLGDVLALAIPEEPNLENSSNTFASCGSDGYTYIWDSRSPSAVQSFYVNDSDINALRFFKDGMSIVAGSDNGAINMYDLRSDCSIATFSLFRGYEERTPTPTYMAANMEYNTAQSPQTLKSTSSSYLDNQGVVSLDFSASGRLMYSCYTDIGCVVWDVLKGEIVGKLEGHGGRVTGVRSSPDGLAVCTGSWDSTMKIWSPGYQ
notes: Expressed in E. coli; migrates as a doublet due to proteolysis; also called Hexahistidine-tagged Ste4p; pTrcSte4; not shown: hexahistidine tag with the leader of the pTrc vector
Consider B5, for which, in assay [6], the binding entry is on record as “binds”.
